According to PMC3548756:
These are yes or no findings as the source states them, for the method shown. Binding seen in cells or lysates may run through a third protein. Some entries that bind do so weakly or less than the wild type.

Chains of the proteins cited; added tags and fusions are not shown. Lines headed by an entry give the natural chain unless they say otherwise; changes in a name come on top. A line that says so, or that is headed by a name, gives the form on record, which may keep a tag or linker. Residues count along the entry.
UniProt Q8TDY2: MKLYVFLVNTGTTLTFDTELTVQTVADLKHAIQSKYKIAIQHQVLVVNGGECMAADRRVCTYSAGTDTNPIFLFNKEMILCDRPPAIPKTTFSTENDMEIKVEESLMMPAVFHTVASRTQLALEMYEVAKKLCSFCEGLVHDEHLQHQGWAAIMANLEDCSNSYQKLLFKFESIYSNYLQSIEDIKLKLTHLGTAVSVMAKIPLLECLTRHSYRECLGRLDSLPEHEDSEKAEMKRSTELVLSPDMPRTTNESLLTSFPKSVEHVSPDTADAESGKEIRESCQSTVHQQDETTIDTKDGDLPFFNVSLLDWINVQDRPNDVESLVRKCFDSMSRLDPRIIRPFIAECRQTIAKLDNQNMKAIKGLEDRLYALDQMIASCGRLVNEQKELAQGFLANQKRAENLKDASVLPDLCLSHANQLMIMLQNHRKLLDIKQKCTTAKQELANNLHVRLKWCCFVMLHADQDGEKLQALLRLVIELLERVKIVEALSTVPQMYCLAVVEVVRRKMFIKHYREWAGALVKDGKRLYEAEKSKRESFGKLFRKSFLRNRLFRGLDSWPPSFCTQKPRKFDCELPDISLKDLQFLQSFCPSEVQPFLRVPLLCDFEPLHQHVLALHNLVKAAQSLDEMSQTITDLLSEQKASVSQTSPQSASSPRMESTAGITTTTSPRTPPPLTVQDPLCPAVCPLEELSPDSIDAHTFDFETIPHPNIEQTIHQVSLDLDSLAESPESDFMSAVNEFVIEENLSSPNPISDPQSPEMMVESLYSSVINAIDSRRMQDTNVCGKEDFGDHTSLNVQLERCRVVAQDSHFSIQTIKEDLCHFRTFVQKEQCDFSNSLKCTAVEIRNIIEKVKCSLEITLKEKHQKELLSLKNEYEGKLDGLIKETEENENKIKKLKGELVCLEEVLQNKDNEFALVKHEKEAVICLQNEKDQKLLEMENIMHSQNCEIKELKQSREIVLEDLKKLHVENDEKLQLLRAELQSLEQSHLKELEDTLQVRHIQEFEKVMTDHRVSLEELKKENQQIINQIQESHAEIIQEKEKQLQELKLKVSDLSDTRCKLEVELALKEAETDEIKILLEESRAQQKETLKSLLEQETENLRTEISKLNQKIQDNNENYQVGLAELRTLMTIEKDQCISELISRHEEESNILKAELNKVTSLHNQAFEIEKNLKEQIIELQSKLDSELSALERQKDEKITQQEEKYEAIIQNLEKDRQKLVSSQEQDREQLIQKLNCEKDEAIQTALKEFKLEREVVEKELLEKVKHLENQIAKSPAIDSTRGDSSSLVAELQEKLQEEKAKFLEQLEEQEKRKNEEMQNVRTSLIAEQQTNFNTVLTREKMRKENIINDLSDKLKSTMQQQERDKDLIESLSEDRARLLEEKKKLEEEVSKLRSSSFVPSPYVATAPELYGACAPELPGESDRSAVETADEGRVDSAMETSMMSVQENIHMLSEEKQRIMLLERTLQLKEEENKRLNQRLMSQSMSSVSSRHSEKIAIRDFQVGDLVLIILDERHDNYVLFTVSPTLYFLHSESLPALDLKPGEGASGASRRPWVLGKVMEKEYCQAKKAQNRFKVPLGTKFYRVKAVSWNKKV
GST-fused C-terminal domain of FIP200 (amino acid residues 1357-1594): residues 1357-1594 of Q8TDY2
UniProt Q9R1A8: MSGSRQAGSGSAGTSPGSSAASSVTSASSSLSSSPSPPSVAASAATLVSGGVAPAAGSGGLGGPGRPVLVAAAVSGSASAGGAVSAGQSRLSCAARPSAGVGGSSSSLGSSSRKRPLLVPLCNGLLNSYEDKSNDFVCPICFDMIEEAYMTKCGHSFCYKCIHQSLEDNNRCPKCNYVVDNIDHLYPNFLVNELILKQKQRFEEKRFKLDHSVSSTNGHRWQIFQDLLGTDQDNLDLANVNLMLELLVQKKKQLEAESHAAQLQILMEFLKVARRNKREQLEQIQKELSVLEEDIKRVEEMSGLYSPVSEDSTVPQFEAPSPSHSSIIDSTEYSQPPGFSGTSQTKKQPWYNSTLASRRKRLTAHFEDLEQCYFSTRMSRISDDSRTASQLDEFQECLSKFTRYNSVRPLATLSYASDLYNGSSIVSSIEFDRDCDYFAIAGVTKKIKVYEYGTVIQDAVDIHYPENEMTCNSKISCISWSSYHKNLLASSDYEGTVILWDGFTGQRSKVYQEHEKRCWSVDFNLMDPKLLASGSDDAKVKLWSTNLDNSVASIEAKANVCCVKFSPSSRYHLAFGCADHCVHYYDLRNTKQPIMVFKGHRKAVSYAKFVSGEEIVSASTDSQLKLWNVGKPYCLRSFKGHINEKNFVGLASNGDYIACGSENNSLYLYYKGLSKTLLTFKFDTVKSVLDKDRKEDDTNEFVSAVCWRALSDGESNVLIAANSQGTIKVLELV
HA-GFP-fused COP1, SA mutant (Q9R1A8, form named): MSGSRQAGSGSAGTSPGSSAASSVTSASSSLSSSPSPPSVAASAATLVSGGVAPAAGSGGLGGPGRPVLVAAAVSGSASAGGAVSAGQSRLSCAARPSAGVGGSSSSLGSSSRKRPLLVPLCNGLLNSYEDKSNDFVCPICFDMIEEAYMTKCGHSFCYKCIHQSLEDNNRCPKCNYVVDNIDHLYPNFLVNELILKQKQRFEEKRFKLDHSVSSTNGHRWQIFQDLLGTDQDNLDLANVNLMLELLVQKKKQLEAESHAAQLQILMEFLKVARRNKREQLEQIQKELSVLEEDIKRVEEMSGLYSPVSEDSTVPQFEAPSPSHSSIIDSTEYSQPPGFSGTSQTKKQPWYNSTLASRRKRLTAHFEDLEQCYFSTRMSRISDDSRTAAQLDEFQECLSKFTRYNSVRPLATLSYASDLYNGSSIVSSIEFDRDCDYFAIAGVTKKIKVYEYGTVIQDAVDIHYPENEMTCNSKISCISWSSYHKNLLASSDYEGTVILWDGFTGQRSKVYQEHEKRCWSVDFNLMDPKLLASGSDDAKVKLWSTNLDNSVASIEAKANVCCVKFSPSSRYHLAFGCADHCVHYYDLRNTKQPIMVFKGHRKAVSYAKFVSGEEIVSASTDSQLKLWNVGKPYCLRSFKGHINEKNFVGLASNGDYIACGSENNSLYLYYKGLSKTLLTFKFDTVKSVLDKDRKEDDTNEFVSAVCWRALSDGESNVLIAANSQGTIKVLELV

Legend:
[1] = target: GST-fused C-terminal domain of FIP200 (amino acid residues 1357-1594) (human) (UniProt Q8TDY2); experiment: pull-down; GST-FIP200 recombinant protein immobilized on glutathione beads, mixed with cell lysate containing ectopically expressed HA-tagged COP1; bound proteins blotted with antibody against COP1; only the target purified
[2] = target: HA-GFP-fused COP1, SA mutant (mouse) (UniProt Q9R1A8); experiment: co-IP; lysates of NIH3T3 transfectants immunoprecipitated with rabbit antibody to an HA-epitope (normal rabbit serum as control); blot with antibody against COP1
[3] = target: HA-GFP-fused COP1, wild type (mouse) (UniProt Q9R1A8); experiment: as above
[4] = target: wild-type full-length COP1 fused to the C-terminal half of YFP (COP1-YC) (mouse) (UniProt Q9R1A8); experiment: split reporter; split GFP (YFP) halves YN (1-154) and YC (155-238) fused to the two proteins; NIH3T3 cells transfected, before and after treatment with UV; fluorescence microscopy and flow cytometer
[5] = target: full-length FIP200 fused to the N-terminal half of YFP (FIP200-YN) (human) (UniProt Q8TDY2); experiment: as above

For “HA-tagged wild-type COP1 (from UniProt Q9R1A8 1-733)”, the binding [1] was “binds”.
In the case of “endogenous COP1 protein of NIH3T3 cells (from UniProt Q9R1A8 1-733)”, the binding [2] is reported as “binds” and the binding [3] is reported as “binds”.
For “full-length COP1 fused to the N-terminal half of YFP (COP1-YN) (from UniProt Q9R1A8 1-733)”, the binding [4] was “binds”.
“wild-type full-length COP1 fused to the C-terminal half of YFP (COP1-YC) (from UniProt Q9R1A8 1-733)” was tested, and the binding [5] was “binds”.
